Measured values as given in patent US20080004355A1, “Method for Inhibiting Telomerase Activity and an Agent for Inhibiting the Same” (priority 2004, published 2008).
No constants are given. Whether binding was seen depends on the method and setting. Some binding calls cover weakened binding; strength is not graded here.

Sequences of proteins named here, by UniProt entry; tags and fusion partners are left off. A change or cut given only in a name is not applied to a line headed by its entry.
UniProt O14746: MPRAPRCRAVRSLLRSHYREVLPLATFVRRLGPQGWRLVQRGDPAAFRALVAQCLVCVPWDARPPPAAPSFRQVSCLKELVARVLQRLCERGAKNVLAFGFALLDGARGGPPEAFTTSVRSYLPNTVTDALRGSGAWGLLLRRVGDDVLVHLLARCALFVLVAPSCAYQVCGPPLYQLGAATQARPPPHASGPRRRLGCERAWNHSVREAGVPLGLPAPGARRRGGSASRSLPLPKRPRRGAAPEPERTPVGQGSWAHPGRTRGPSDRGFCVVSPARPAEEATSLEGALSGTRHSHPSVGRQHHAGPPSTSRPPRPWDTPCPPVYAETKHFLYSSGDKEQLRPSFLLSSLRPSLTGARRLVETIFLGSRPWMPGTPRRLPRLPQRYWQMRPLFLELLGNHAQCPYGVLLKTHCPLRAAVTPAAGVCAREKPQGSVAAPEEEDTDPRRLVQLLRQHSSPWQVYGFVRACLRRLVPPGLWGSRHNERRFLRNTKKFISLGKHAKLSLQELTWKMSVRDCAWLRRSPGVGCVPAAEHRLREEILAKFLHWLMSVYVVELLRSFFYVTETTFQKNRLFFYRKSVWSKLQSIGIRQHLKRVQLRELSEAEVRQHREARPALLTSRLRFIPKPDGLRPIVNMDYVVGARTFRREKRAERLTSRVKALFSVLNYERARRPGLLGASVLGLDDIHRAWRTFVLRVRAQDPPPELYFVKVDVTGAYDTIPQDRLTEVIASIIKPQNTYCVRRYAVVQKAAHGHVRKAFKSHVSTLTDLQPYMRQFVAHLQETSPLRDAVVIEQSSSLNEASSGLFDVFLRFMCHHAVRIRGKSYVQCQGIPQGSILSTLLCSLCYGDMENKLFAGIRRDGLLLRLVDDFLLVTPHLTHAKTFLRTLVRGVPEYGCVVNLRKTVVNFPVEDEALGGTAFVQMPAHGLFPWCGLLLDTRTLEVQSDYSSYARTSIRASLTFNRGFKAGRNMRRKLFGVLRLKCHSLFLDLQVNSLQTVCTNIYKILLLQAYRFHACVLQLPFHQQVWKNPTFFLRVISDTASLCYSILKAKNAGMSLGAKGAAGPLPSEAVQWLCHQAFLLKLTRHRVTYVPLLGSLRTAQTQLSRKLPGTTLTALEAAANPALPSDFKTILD
UniProt Q15843: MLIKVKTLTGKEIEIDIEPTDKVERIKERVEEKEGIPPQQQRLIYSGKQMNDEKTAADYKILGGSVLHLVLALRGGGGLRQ

Legend:
[1] = target: TERT (telomerase reverse transcriptase, telomerase catalytic subunit) (human) (UniProt O14746); assay: co-expression in HEK293T cells, RIPA lysate, immunoprecipitation with anti-TERT (L-21), Western blot with anti-FLAG; covalent conjugation
[2] = target: TERT (telomerase reverse transcriptase, telomerase catalytic subunit) (human) (UniProt O14746); assay: co-expression in cultured cells, immunoprecipitation with anti-TERT, Western blot with anti-FLAG (FIG. 5, lane 3); covalent conjugation
[3] = target: N-terminal FLAG-tagged TERT (human) (UniProt O14746); assay: co-expression in HEK293T cells, immunoprecipitation with anti-HA agarose, Western blot with anti-FLAG; signal taken to be covalent NEDD8 conjugate
[4] = target: N-terminal FLAG-tagged TERT (human) (UniProt O14746); assay: co-expression in cultured cells, immunoprecipitation with anti-HA, Western blot with anti-FLAG (FIG. 4)
[5] = target: N-terminal FLAG-tagged TERT (human) (UniProt O14746); assay: co-expression in HEK293T cells, immunoprecipitation with anti-HA agarose, Western blot with anti-FLAG

| binding [1] | binding [2] | binding [3] | binding [4] | binding [5] | Substance |
| --- | --- | --- | --- | --- | --- |
| binds | binds | – | – | – | N-terminal FLAG-tagged NEDD8 (from UniProt Q15843 1-76) |
| – | – | binds | binds | binds | N-terminal HA-tagged NEDD8 (from UniProt Q15843 1-76) |
